The data set deals with NtAGL66 (Nicotiana tabacum). The experiment in a line: EMSA. The following applies: 0, 0.06, 0.6 and 11.92 ug protein, 1 nM DNA, 5 mM Mg2+.

Construct, isoform or probe ends are uncertain for at least one entry.

Experimental findings from article doi:10.1101/2025.04.27.650782 are described below.

“AGACGGATCCATTGCAATAAAAGAAAAAAATCCTGTAGGAATTCGGA (double strand) [AGL66_EMSA_Probe]”: the binding result is reported as “binds”.
